{"source": "the supplement of paper PMC8728848", "binders": {"B1": {"name": "ArathEULS3 TAP (Arabidopsis thaliana) (protein)", "chain": "IDENLYFQGGSMDEKTTGWRGGHVVEGLAGELEQLRARLEHHPQGQREPGGGGSLEITSLYKKAGFMEHHHQHHRHHQRDDGEDDRQSFGVPPPHVDAPPQPHGLYQSQPHFDPYAPTPQAPAPYRSETQFEPHAPPPYRSEPYFETPAPPPSFGHVSHVGHQSPNESYPPEHHRYGGYQQPSNSLLESHGDHSGVTHVAHHSSNQPQSSSGVYHKPDENRLPDNLAGLAGRATVKVYSKAEPNYNLTIRDGKVILAPADPSDEAQHWYKDEKYSTKVKDADGHPCFALVNKATGEAMKHSVGATHPVHLIRYVPDKLDESVLWTESKDFGDGYRTIRMVNNTRLNVDAYHGDSKSGGVRDGTTIVLWDWNKGDNQLWKIFPF"}}, "test_in_all_cases": "glycan array binding signal (z-score within array); higher = stronger binding", "settings_in_all_cases": "glycan notation: IUPAC condensed, linker removed", "key": {"[1]": {"biological_target": "Neu5Ac(a2-3)Gal(b1-4)GlcNAc(b1-2)[Neu5Ac(a2-3)Gal(b1-4)GlcNAc(b1-4)]Man(a1-3)[GlcNAc(b1-4)][Neu5Ac(a2-3)Gal(b1-4)GlcNAc(b1-2)[Neu5Ac(a2-3)Gal(b1-4)GlcNAc(b1-6)]Man(a1-6)]Man(b1-4)GlcNAc(b1-4)GlcNAc", "procedure,_shortened": "(§1)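 The binding signal is a Z-score computed within each array. Data were drawn from 3228 arrays in the Consortium for Functional Glycomics database, restricted to those with a known protein sequence. Scores were averaged over arrays of the same protein sequence at different concentrations or buffers, and over linkers, and negative values can be taken as non-binding.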"}, "[2]": {"biological_target": "Neu5Ac(a2-3)Gal(b1-4)GlcNAc(b1-2)[Neu5Ac(a2-3)Gal(b1-4)GlcNAc(b1-4)]Man(a1-3)[GlcNAc(b1-4)][Neu5Ac(a2-3)Gal(b1-4)GlcNAc(b1-4)Man(a1-6)]Man(b1-4)GlcNAc(b1-4)GlcNAc", "procedure,_shortened": "as §1"}, "[3]": {"biological_target": "Neu5Ac(a2-3)Gal(b1-4)GlcNAc(b1-2)[Neu5Ac(a2-3)Gal(b1-4)GlcNAc(b1-6)]Man(a1-6)[Neu5Ac(a2-3)Gal(b1-4)GlcNAc(b1-2)Man(a1-3)][GlcNAc(b1-4)]Man(b1-4)GlcNAc(b1-4)GlcNAc", "procedure,_shortened": "as §1"}, "[4]": {"biological_target": "Neu5Ac(a2-3)Gal(b1-4)GlcNAc(b1-3)Gal", "procedure,_shortened": "as §1"}, "[5]": {"biological_target": "Neu5Ac(a2-3)Gal(b1-4)GlcNAc(b1-3)Gal(b1-3)GlcNAc", "procedure,_shortened": "as §1"}, "[6]": {"biological_target": "Neu5Ac(a2-3)Gal(b1-4)GlcNAc(b1-3)Gal(b1-4)GlcNAc", "procedure,_shortened": "as §1"}, "[7]": {"biological_target": "Neu5Ac(a2-3)Gal(b1-4)GlcNAc(b1-3)Gal(b1-4)GlcNAc(b1-2)Man(a1-3)[Neu5Ac(a2-3)Gal(b1-4)GlcNAc(b1-3)Gal(b1-4)GlcNAc(b1-2)Man(a1-6)]Man(b1-4)GlcNAc(b1-4)GlcNAc", "procedure,_shortened": "as §1"}, "[8]": {"biological_target": "Neu5Ac(a2-3)Gal(b1-4)GlcNAc(b1-3)Gal(b1-4)GlcNAc(b1-3)Gal(b1-4)GlcNAc", "procedure,_shortened": "as §1"}, "[9]": {"biological_target": "Neu5Ac(a2-3)Gal(b1-4)GlcNAc(b1-3)Gal(b1-4)GlcNAc(b1-3)Gal(b1-4)GlcNAc(b1-2)Man(a1-3)[Neu5Ac(a2-3)Gal(b1-4)GlcNAc(b1-3)Gal(b1-4)GlcNAc(b1-3)Gal(b1-4)GlcNAc(b1-2)Man(a1-6)]GalNAc", "procedure,_shortened": "as §1"}, "[10]": {"biological_target": "Neu5Ac(a2-3)Gal(b1-4)GlcNAc(b1-3)Gal(b1-4)GlcNAc(b1-3)GalNAc", "procedure,_shortened": "as §1"}, "[11]": {"biological_target": "Neu5Ac(a2-3)Gal(b1-4)GlcNAc(b1-3)Gal(b1-4)GlcNAc(b1-3)[Neu5Ac(a2-3)Gal(b1-4)GlcNAc(b1-3)Gal(b1-4)GlcNAc(b1-6)]GalNAc", "procedure,_shortened": "as §1"}, "[12]": {"biological_target": "Neu5Ac(a2-3)Gal(b1-4)GlcNAc(b1-3)Gal(b1-4)GlcNAc(b1-6)[Gal(b1-3)]GalNAc", "procedure,_shortened": "as §1"}, "[13]": {"biological_target": "Neu5Ac(a2-3)Gal(b1-4)GlcNAc(b1-3)Gal(b1-4)[Fuc(a1-3)]GlcNAc", "procedure,_shortened": "as §1"}, "[14]": {"biological_target": "Neu5Ac(a2-3)Gal(b1-4)GlcNAc(b1-3)GalNAc", "procedure,_shortened": "as §1"}, "[15]": {"biological_target": "Neu5Ac(a2-3)Gal(b1-4)GlcNAc(b1-3)[Neu5Ac(a2-3)Gal(b1-4)GlcNAc(b1-6)]GalNAc", "procedure,_shortened": "as §1"}, "[16]": {"biological_target": "Neu5Ac(a2-3)Gal(b1-4)GlcNAc(b1-6)GalNAc", "procedure,_shortened": "as §1"}, "[17]": {"biological_target": "Neu5Ac(a2-3)Gal(b1-4)GlcNAc(b1-6)[Gal(b1-3)]GalNAc", "procedure,_shortened": "as §1"}, "[18]": {"biological_target": "Neu5Ac(a2-3)Gal(b1-4)GlcNAc(b1-6)[Neu5Ac(a2-3)Gal(b1-3)]GalNAc", "procedure,_shortened": "as §1"}, "[19]": {"biological_target": "Neu5Ac(a2-3)Gal(b1-4)GlcNAc6S", "procedure,_shortened": "as §1"}, "[20]": {"biological_target": "Neu5Ac(a2-3)Gal(b1-4)[Fuc(a1-3)]GlcNAc", "procedure,_shortened": "as §1"}, "[21]": {"biological_target": "Neu5Ac(a2-3)Gal(b1-4)[Fuc(a1-3)]GlcNAc(b1-2)Man", "procedure,_shortened": "as §1"}, "[22]": {"biological_target": "Neu5Ac(a2-3)Gal(b1-4)[Fuc(a1-3)]GlcNAc(b1-3)Gal", "procedure,_shortened": "as §1"}, "[23]": {"biological_target": "Neu5Ac(a2-3)Gal(b1-4)[Fuc(a1-3)]GlcNAc(b1-3)Gal(b1-4)GlcNAc", "procedure,_shortened": "as §1"}, "[24]": {"biological_target": "Neu5Ac(a2-3)Gal(b1-4)[Fuc(a1-3)]GlcNAc(b1-3)Gal(b1-4)[Fuc(a1-3)]GlcNAc(b1-3)Gal(b1-4)[Fuc(a1-3)]GlcNAc", "procedure,_shortened": "as §1"}, "[25]": {"biological_target": "Neu5Ac(a2-3)Gal(b1-4)[Fuc(a1-3)]GlcNAc(b1-3)GalNAc", "procedure,_shortened": "as §1"}, "[26]": {"biological_target": "Neu5Ac(a2-3)Gal(b1-4)[Fuc(a1-3)]GlcNAc(b1-6)[Gal(b1-3)]GalNAc", "procedure,_shortened": "as §1"}, "[27]": {"biological_target": "Neu5Ac(a2-3)Gal(b1-4)[Fuc(a1-3)]GlcNAc(b1-6)[Neu5Ac(a2-3)Gal(b1-3)]GalNAc", "procedure,_shortened": "as §1"}, "[28]": {"biological_target": "Neu5Ac(a2-3)Gal(b1-4)[Fuc(a1-3)]GlcNAc6S", "procedure,_shortened": "as §1"}, "[29]": {"biological_target": "Neu5Ac(a2-3)Gal6S(b1-4)GlcNAc", "procedure,_shortened": "as §1"}, "[30]": {"biological_target": "Neu5Ac(a2-3)Gal6S(b1-4)[Fuc(a1-3)]GlcNAc", "procedure,_shortened": "as §1"}, "Neu5Ac(a2-3)GalNAc": {"biological_target": "Neu5Ac(a2-3)GalNAc", "procedure,_shortened": "as §1"}, "[31]": {"biological_target": "Neu5Ac(a2-3)GalNAc(b1-4)GlcNAc", "procedure,_shortened": "as §1"}, "[32]": {"biological_target": "Neu5Ac(a2-3)[GalNAc(b1-4)]Gal(b1-4)Glc", "procedure,_shortened": "as §1"}, "[33]": {"biological_target": "Neu5Ac(a2-3)[GalNAc(b1-4)]Gal(b1-4)GlcNAc", "procedure,_shortened": "as §1"}, "[34]": {"biological_target": "Neu5Ac(a2-3)[GalNAc(b1-4)]Gal(b1-4)GlcNAc(b1-3)GalNAc", "procedure,_shortened": "as §1"}, "[35]": {"biological_target": "Neu5Ac(a2-3)[Neu5Ac(a2-6)]GalNAc", "procedure,_shortened": "as §1"}, "Neu5Ac(a2-6)Gal": {"biological_target": "Neu5Ac(a2-6)Gal", "procedure,_shortened": "as §1"}}, "note": "Some of the results follow.", "data": [{"binder": "B1", "values": [{"measurement": "glycan array binding signal (z-score)", "setting": "[1]", "value": -1.75}, {"measurement": "glycan array binding signal (z-score)", "setting": "[2]", "value": -0.084}, {"measurement": "glycan array binding signal (z-score)", "setting": "[3]", "value": -1.1}, {"measurement": "glycan array binding signal (z-score)", "setting": "[4]", "value": -0.293}, {"measurement": "glycan array binding signal (z-score)", "setting": "[5]", "value": -0.111}, {"measurement": "glycan array binding signal (z-score)", "setting": "[6]", "value": -1.37}, {"measurement": "glycan array binding signal (z-score)", "setting": "[7]", "value": -0.38}, {"measurement": "glycan array binding signal (z-score)", "setting": "[8]", "value": 0.53}, {"measurement": "glycan array binding signal (z-score)", "setting": "[9]", "value": -0.083}, {"measurement": "glycan array binding signal (z-score)", "setting": "[10]", "value": -1}, {"measurement": "glycan array binding signal (z-score)", "setting": "[11]", "value": 0.575}, {"measurement": "glycan array binding signal (z-score)", "setting": "[12]", "value": -1.56}, {"measurement": "glycan array binding signal (z-score)", "setting": "[13]", "value": -1.02}, {"measurement": "glycan array binding signal (z-score)", "setting": "[14]", "value": -0.09}, {"measurement": "glycan array binding signal (z-score)", "setting": "[15]", "value": 0.029}, {"measurement": "glycan array binding signal (z-score)", "setting": "[16]", "value": 0.426}, {"measurement": "glycan array binding signal (z-score)", "setting": "[17]", "value": 0.09}, {"measurement": "glycan array binding signal (z-score)", "setting": "[18]", "value": -1.05}, {"measurement": "glycan array binding signal (z-score)", "setting": "[19]", "value": -0.296}, {"measurement": "glycan array binding signal (z-score)", "setting": "[20]", "value": -0.386}, {"measurement": "glycan array binding signal (z-score)", "setting": "[21]", "value": 0.573}, {"measurement": "glycan array binding signal (z-score)", "setting": "[22]", "value": -0.37}, {"measurement": "glycan array binding signal (z-score)", "setting": "[23]", "value": 2.91}, {"measurement": "glycan array binding signal (z-score)", "setting": "[24]", "value": 0.061}, {"measurement": "glycan array binding signal (z-score)", "setting": "[25]", "value": 1.63}, {"measurement": "glycan array binding signal (z-score)", "setting": "[26]", "value": -0.527}, {"measurement": "glycan array binding signal (z-score)", "setting": "[27]", "value": -0.792}, {"measurement": "glycan array binding signal (z-score)", "setting": "[28]", "value": -0.75}, {"measurement": "glycan array binding signal (z-score)", "setting": "[29]", "value": -1.36}, {"measurement": "glycan array binding signal (z-score)", "setting": "[30]", "value": -1.64}, {"measurement": "glycan array binding signal (z-score)", "setting": "Neu5Ac(a2-3)GalNAc", "value": 0.618}, {"measurement": "glycan array binding signal (z-score)", "setting": "[31]", "value": -1.09}, {"measurement": "glycan array binding signal (z-score)", "setting": "[32]", "value": 0.447}, {"measurement": "glycan array binding signal (z-score)", "setting": "[33]", "value": -1.12}, {"measurement": "glycan array binding signal (z-score)", "setting": "[34]", "value": 0.557}, {"measurement": "glycan array binding signal (z-score)", "setting": "[35]", "value": -0.14}, {"measurement": "glycan array binding signal (z-score)", "setting": "Neu5Ac(a2-6)Gal", "value": -0.304}]}]}
